Only a part is listed here, and it is no random draw.
Compound: COC(=O)C#Cc1ccccc1 [methyl 3-phenylpropiolate]
Assay: log2 ratio of iodoacetamide-alkyne labeling of the cysteine site, DMSO over compound (competition); higher = stronger covalent engagement of the cysteine by the compound, active = 1 or more
Conditions: 500 µM; treatment time 1 h; system: HEK293T cell lysate
In short: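 The log2 competition ratio per cysteine is defined as mean reporter intensity in control channels over mean reporter intensity in compound channels. Lysate from HEK293T cells (2 mg/mL) received electrophile (500 µM) or vehicle for 1 h at ambient temperature, followed by iodoacetamide alkyne for 1 h. Samples were clicked to sCIP-TMT reagents, pooled, trypsin-digested overnight at 37 °C, streptavidin-enriched, acid-eluted and run on Orbitrap Eclipse LC-MS/MS with FAIMS, with quantification in FragPipe. Three replicates with duplicate channels were used, and any cysteine quantified in only one replicate was excluded.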

The chains behind the UniProt entries cited, without tags or fusion partners. Where a name states a change or a piece, a line headed by the entry shows the natural chain unless it says otherwise.
UniProt O60343: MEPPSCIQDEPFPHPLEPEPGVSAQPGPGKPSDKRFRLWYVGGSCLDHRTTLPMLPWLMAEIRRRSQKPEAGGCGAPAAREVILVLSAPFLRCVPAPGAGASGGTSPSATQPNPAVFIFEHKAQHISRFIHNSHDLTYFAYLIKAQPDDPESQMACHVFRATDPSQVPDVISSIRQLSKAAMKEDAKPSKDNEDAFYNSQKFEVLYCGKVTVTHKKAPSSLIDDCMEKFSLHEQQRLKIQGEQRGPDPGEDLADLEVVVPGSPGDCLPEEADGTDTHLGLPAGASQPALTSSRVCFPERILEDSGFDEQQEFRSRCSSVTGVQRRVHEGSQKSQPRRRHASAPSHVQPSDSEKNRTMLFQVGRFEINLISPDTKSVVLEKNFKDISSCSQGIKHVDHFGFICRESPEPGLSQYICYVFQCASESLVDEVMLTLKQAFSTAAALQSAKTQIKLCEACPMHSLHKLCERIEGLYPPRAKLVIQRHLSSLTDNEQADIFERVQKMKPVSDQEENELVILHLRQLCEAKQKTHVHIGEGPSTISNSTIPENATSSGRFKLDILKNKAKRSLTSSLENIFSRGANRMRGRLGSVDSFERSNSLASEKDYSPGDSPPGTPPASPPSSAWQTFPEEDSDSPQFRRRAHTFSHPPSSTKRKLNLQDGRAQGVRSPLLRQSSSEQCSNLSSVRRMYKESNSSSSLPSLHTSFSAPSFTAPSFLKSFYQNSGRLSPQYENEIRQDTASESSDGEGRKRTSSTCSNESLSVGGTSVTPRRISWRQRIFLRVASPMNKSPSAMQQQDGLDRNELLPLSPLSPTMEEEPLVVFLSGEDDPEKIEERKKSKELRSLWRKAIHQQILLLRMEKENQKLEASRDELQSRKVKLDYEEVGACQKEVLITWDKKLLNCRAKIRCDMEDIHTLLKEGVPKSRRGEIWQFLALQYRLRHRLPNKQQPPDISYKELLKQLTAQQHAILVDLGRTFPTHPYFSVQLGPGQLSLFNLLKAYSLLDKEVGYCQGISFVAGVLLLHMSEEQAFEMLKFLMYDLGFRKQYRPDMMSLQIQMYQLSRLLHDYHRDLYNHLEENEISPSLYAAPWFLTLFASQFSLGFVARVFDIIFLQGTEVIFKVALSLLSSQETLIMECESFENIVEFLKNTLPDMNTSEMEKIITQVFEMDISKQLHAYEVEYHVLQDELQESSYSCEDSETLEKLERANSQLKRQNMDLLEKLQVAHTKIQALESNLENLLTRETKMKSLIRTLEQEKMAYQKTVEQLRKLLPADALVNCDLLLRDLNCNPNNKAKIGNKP
UniProt O75832: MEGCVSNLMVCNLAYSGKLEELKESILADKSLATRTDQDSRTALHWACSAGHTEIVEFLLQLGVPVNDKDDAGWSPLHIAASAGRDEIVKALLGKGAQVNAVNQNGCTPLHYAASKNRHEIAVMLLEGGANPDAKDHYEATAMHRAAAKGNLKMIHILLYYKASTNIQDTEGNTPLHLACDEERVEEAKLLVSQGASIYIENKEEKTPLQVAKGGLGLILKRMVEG
UniProt O43583: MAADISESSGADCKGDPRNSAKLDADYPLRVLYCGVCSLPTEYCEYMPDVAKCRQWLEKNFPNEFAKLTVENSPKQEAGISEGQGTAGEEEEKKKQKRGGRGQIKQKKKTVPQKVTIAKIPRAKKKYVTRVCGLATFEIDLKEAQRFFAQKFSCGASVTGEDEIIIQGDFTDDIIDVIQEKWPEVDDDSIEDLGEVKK
UniProt O43488: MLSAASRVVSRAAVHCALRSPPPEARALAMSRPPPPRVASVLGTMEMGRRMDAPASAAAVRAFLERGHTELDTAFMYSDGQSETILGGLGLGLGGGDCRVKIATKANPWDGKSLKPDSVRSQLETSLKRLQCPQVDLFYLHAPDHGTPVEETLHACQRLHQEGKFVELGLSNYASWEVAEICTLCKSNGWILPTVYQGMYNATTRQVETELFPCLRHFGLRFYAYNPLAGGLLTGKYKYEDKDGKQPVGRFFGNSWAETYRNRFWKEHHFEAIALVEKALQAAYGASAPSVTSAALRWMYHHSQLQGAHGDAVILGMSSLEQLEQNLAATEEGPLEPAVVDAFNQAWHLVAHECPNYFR
UniProt O75914, whole entry, looked up: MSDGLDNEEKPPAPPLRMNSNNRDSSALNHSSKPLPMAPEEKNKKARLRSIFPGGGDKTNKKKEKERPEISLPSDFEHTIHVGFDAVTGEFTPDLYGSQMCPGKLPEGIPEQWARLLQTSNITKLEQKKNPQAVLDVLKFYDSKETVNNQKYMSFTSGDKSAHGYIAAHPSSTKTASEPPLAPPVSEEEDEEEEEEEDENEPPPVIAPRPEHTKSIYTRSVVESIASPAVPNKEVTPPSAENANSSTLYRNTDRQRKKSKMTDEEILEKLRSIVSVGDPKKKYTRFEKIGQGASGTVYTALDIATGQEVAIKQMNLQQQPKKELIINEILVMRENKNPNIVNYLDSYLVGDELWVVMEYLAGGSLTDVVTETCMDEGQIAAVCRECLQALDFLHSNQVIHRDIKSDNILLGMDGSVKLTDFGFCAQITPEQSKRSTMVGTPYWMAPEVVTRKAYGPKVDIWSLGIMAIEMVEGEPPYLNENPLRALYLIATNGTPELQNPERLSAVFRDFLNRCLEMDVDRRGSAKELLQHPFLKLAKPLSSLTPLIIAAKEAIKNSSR
UniProt O60763: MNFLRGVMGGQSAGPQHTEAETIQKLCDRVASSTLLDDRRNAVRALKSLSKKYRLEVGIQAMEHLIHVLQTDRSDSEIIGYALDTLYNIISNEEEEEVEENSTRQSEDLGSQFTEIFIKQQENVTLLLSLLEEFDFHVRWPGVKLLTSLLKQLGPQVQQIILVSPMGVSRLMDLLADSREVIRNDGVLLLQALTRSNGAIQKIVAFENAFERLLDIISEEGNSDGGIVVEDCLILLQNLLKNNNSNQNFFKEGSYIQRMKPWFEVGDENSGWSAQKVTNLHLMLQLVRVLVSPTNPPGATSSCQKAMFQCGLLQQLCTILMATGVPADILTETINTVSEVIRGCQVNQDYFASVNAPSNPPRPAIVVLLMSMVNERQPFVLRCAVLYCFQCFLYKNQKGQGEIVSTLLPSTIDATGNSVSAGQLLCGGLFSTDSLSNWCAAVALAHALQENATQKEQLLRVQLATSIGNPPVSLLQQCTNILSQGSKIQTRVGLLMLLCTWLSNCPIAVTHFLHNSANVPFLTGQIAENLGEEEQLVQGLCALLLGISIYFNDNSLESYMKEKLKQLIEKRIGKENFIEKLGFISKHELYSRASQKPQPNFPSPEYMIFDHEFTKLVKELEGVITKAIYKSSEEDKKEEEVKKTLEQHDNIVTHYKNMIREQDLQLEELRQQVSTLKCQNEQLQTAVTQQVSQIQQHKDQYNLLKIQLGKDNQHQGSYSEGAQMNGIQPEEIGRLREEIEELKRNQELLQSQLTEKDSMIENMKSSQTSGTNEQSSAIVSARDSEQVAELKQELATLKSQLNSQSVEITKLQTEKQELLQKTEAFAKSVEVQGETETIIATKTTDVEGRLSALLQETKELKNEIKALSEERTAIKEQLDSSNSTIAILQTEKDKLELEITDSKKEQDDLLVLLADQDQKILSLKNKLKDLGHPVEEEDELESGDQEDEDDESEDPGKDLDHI
UniProt O75334: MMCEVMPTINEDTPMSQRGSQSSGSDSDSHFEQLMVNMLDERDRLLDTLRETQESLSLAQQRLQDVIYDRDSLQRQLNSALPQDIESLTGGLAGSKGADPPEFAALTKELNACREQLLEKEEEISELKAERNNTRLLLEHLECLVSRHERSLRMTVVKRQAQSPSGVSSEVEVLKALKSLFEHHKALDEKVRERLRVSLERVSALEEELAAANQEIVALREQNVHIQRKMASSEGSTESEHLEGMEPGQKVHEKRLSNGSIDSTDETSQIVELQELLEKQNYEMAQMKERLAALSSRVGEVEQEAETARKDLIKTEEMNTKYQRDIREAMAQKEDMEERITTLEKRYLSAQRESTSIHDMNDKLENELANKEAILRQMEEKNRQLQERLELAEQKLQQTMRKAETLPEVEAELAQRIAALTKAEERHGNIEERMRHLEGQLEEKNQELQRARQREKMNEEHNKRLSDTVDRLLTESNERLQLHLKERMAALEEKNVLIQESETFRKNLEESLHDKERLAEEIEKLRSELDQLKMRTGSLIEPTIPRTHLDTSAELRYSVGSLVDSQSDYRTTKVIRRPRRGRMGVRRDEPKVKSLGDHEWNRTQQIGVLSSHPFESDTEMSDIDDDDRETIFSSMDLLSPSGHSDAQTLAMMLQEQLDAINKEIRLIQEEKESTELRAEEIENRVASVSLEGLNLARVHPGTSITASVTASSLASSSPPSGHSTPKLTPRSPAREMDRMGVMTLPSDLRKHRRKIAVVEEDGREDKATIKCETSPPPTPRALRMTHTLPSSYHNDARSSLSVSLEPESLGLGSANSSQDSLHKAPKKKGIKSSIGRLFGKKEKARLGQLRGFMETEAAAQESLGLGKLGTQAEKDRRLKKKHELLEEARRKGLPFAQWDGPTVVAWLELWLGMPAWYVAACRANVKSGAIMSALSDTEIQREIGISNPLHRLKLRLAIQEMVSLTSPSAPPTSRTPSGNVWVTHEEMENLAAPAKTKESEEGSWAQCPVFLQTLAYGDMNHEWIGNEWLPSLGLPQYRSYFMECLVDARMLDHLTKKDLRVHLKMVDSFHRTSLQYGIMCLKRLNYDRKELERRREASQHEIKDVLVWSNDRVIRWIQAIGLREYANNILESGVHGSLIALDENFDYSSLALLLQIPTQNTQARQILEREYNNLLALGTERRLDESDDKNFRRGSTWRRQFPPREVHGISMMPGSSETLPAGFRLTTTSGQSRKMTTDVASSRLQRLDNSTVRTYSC
UniProt O43252: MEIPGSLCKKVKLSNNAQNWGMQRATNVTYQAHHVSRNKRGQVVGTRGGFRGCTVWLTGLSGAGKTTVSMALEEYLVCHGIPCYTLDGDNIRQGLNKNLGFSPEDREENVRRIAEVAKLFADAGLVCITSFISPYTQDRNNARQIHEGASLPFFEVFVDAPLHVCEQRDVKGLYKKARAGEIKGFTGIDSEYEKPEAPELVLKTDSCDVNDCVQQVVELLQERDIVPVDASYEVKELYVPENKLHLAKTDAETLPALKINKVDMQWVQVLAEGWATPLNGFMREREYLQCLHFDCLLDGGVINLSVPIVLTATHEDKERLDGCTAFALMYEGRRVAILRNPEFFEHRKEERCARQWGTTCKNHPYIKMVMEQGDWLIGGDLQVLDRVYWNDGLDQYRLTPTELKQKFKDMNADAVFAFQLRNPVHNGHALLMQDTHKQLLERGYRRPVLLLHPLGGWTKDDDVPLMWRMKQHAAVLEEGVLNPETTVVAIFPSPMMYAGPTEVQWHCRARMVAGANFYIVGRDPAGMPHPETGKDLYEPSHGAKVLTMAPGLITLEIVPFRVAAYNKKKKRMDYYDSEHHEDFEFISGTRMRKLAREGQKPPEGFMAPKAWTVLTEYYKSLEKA
UniProt O43491, whole entry, looked up: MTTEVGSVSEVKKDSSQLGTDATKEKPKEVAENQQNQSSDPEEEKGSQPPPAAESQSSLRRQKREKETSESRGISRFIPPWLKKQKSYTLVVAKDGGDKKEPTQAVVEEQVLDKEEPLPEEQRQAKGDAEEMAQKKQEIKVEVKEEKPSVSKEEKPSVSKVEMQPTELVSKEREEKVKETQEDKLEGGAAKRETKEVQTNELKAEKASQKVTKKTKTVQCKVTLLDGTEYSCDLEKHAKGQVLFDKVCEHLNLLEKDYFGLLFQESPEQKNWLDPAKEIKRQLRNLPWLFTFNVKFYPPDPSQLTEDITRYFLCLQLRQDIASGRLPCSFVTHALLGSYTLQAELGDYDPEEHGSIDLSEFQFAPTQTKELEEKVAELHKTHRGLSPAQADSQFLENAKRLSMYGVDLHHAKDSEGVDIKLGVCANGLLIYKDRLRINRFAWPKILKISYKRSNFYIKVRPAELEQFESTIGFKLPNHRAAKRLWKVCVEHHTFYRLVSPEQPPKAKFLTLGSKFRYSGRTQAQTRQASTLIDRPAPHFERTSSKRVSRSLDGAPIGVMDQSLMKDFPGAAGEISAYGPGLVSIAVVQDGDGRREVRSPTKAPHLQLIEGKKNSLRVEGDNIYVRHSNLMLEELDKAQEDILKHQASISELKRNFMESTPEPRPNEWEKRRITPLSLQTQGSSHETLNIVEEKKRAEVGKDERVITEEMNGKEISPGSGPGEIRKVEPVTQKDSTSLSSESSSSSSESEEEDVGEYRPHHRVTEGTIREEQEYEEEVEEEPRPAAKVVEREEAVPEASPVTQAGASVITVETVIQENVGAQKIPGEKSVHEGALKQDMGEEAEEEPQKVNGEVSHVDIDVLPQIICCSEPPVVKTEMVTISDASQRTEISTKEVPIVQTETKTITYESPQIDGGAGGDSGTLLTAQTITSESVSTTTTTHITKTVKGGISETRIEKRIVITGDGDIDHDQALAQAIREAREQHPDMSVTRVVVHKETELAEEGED

Row | Target | log2 ratio of iodoacetamide-alkyne labeling
1 | EIF3G C139 (UniProt O75821) | inactive: 0.259
2 | SART1 C560 (UniProt O43290) | inactive: 0.329
3 | SF3B1 C1035 (UniProt O75533) | inactive: 0.375
4 | TBC1D4 C753 (UniProt O60343) | inactive: 0.981
5 | FLNB C991 (UniProt O75369) | inactive: 0.0508
6 | AQR C681 (UniProt O60306) | inactive: 0.372
7 | PSMD10 C4 (UniProt O75832) | inactive: 0.241
8 | CUTA C96 (UniProt O60888) | inactive: -0.0413
9 | ACSL4 C420 (UniProt O60488) | inactive: 0.453
10 | DENR C132 (UniProt O43583) | inactive: -0.0841
11 | HNRNPR C292 (UniProt O43390) | inactive: 0.0673
12 | UniProt O75879_C228 | inactive: 0.00949
13 | MYO1B C310 (UniProt O43795) | inactive: 0.36
14 | WDHD1 C1008 (UniProt O75717) | inactive: -0.0388
15 | AKR7A2 C214 (UniProt O43488) | inactive: -0.123
16 | SNRNP200 C742 (UniProt O75643) | inactive: 0.0852
17 | XPOT C650 (UniProt O43592) | inactive: 0.0949
18 | PAK3 C424 (UniProt O75914) | inactive: 0.442
19 | HTATSF1 C462 (UniProt O43719) | active: 1.14
20 | SMARCA5 C259 (UniProt O60264) | inactive: 0.509

Row | Target | log2 ratio of iodoacetamide-alkyne labeling
21 | UniProt O75153_C732 | inactive: 0.222
22 | NUP155 C917 (UniProt O75694) | inactive: 0.304
23 | DNAJC13 C2181 (UniProt O75165) | inactive: 0.124
24 | ACTN4 C60 (UniProt O43707) | inactive: 0.0407
25 | SPAG9 C443 (UniProt O60271) | inactive: 0.256
26 | NBN C487 (UniProt O60934) | inactive: 0.78
27 | WDR1 C170 (UniProt O75083) | inactive: 0.73
28 | UniProt O75582_C214 | inactive: 0.398
29 | FLNB C2115 (UniProt O75369) | inactive: 0.51
30 | USO1 C27 (UniProt O60763) | inactive: 0.239
31 | GPC4 C408 (UniProt O75487) | inactive: 0.49
32 | ACTN4 C351 (UniProt O43707) | inactive: 0.157
33 | SMARCA5 C165 (UniProt O60264) | inactive: 0.251
34 | HNRNPR C99 (UniProt O43390) | inactive: 0.315
35 | NMT2 C104 (UniProt O60551) | inactive: 0.453
36 | ZFC3H1 C220 (UniProt O60293) | inactive: 0.0402
37 | SART1 C645 (UniProt O43290) | inactive: 0.0232
38 | OPA1 C551 (UniProt O60313) | inactive: -0.018
39 | UniProt O75153_C153 | inactive: 0.605
40 | UniProt O43679_C207 | inactive: 0.392

Row | Target | log2 ratio of iodoacetamide-alkyne labeling
41 | PPFIA2 C143 (UniProt O75334) | inactive: -0.214
42 | PMPCB C265 (UniProt O75439) | inactive: -0.317
43 | NPM3 C105 (UniProt O75607) | inactive: 0.636
44 | CLPX C538 (UniProt O76031) | inactive: 0.378
45 | RIPK2 C7 (UniProt O43353) | inactive: 0.413
46 | UniProt O60232_C152 | inactive: 0.322
47 | CLPX C586 (UniProt O76031) | inactive: -0.0174
48 | TBC1D4 C6 (UniProt O60343) | inactive: 0.373
49 | ROCK2 C428 (UniProt O75116) | inactive: 0.539
50 | HTATSF1 C295 (UniProt O43719) | inactive: -0.0476
51 | AP1G1 C31 (UniProt O43747) | inactive: 0.0722
52 | RECQL5 C664 (UniProt O94762) | active: 1.47
53 | PAPSS1 C165 (UniProt O43252) | inactive: 0.0259
54 | RNF40 C890 (UniProt O75150) | inactive: 0.371
55 | OPA1 C375 (UniProt O60313) | inactive: 0.235
56 | EPB41L2 C424 (UniProt O43491) | inactive: 0.17
57 | PSMD10 C107 (UniProt O75832) | inactive: -0.0397
58 | RNF40 C69 (UniProt O75150) | inactive: 0.0776
59 | NUP155 C974 (UniProt O75694) | inactive: 0.209

Quoted from the listing:
Entry for SF3B1 C1035 (UniProt O75533) under log2 ratio of iodoacetamide-alkyne labeling: inactive: 0.375
Entry for UniProt O75582_C214 under log2 ratio of iodoacetamide-alkyne labeling: inactive: 0.398
